Measurements: PubChem BioAssay (EPA / NIEHS)
Where “and” joins values, the source holds several entries; their conditions need not be identical. Identical values can stand only once. Inconclusive means that the source gave no clear call. Such entries were picked first, then a sample of the others. For some of these results: Potencies of inconclusive entries are doubtful fits and often do not repeat. Calls of active or inactive are those of the source. Rule for the calls: active = hit-call score of the fitted dose curve at least 0.9, where 1 is the maximum; inconclusive = response in the unintended direction; inactive = score below 0.9.

Experiments:
[1] = TAMU_HCS_1.5hr_SingleDonor1434_Cytotoxicity: Cytotoxicity Assessment using High-content Screening (HCS) Fluorescent Imaging for the Texas A&M University (TAMU) 1.5-hr Human Induced Pluripotent Stem Cell (iPSC)-derived Cardiotoxicity Assay (AID 2284234)
Summary of the method: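 Nuclear counts from Hoechst 33342 imaging define cytotoxicity here, with EC10 (10% cell-count loss relative to DMSO) as point of departure. iPSC cardiomyocytes received 0.2-100 uM test chemical in 0.5% DMSO for 1.5 h at 37 C.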

[2] = TAMU_PeakParms_SingleDonor1434_QT: Texas A&M University (TAMU) 1.5-hr Human Induced Pluripotent Stem Cell (iPSC)-derived Cardiomyocytes Calcium (Ca+2) Flux Assay for Cardiotoxicity: QT (decay-rise ratio) (AID 2284235)
Summary of the method: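 Decay/rise ratio of calcium-flux fluorescence scored after 90 min exposure (37C) of donor 1434 iPSC cardiomyocytes to 0.2–100 uM (0.5% DMSO). Beat-cessation and severe-notch points removed; POD is EC05, a 5% rise over DMSO.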

[3] = CCTE_Mundy_HCI_Cortical_NOG_NeuronCount: CCTE's Neurite Outgrowth Assay in rat cortical cells for Neuron Count, Mundy Lab (AID 2284236);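 note: neurons counted by imaging betaIII-tubulin and Hoechst stained cortical cells; cells exposed to compound for about 48 hours before fixation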
Summary of the method: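 Read-out: neuron number by high-content imaging of betaIII-tubulin (Alexa Fluor-488) and Hoechst-labelled rat primary cortical cells.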

[4] = CCTE_Mundy_HCI_Cortical_Synap_Neur_Matur_NeuronCount: CCTE's Synaptogenesis and Neurite Maturation Assay in rat cortical cells for Neuron Count, Mundy Lab (AID 2284242);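 for AC50: hits reduce neuron count versus DMSO baseline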
Summary of the method: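 Neuron counts come from automated high-content imaging of Hoechst nuclei and MAP2/synaptophysin immunostaining at DIV 12, with loss of signal judged against DMSO. Cultures of rat cortical cells had glial growth arrested by AraC at DIV 5; chemical exposure began DIV 7.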

[5] = CCTE_Mundy_HCI_hN2_NOG_NeuronCount: CCTE's Neurite Outgrowth Assay in human hN2 cells for Neuron Count, Mundy Lab (AID 2284221)
Summary of the method: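 Read-out is the number of betaIII-tubulin-positive neurons imaged by automated high-content analysis, with DMSO as negative control.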

[6] = CCTE_Mundy_HCI_hN2_NOG_NeuriteCount: CCTE's Neurite Outgrowth Assay in human hN2 cells for Neurite Count, Mundy Lab (AID 2284219)
Summary of the method: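 In this morphology assay, hNP1-derived neurons received test chemical 2 h post-plating and were fixed two days later in warm paraformaldehyde/sucrose containing Hoechst 33342. Neurites, labelled by rabbit anti-βIII-tubulin (1:800) and Alexa Fluor-488 (1:500), were counted automatically.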

[7] = CCTE_Mundy_HCI_hN2_NOG_NeuriteLength: CCTE's Neurite Outgrowth Assay in human hN2 cells for Neurite Length, Mundy Lab (AID 2284220)
Summary of the method: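 Read-out is neurite length from high-content imaging of βIII-tubulin/Alexa Fluor-488-labelled neurons, referenced to DMSO controls.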

[8] = CCTE_Mundy_HCI_hNP1_Pro_ResponderAvgInten: CCTE's Proliferation Assay in human neuroprogenitor cells, Mundy Lab (AID 2284224);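 note: human neural progenitor cells hNP1 derived from WA09 embryonic stem cells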
Summary of the method: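 Proliferation read as average intensity of BrdU-positive cells, imaged at 26.25 h post-dosing: chemical exposure started after 40–44 h culture, BrdU during final 4 h, paraformaldehyde fixation. Positive-direction fit relative to DMSO.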

[9] = CCTE_Mundy_HCI_iCellGluta_NOG_NeuriteLength: CCTE's Neurite Outgrowth Assay in iCellGluta cells for Neurite Length, Mundy Lab (AID 2284318)
Summary of the method: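 Automated high-content imaging of betaIII-tubulin (Alexa Fluor-488) and Hoechst-stained cells gave neurite length, normalized to the DMSO baseline.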

[10] = CCTE_Mundy_HCI_hNP1_CellTiter: CCTE's Cell Titer-Glo 2 Assay in human neuroprogenitor cells for Viability, Mundy Lab (AID 2284241);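 for AC50: a hit is a drop in ATP luminescence versus DMSO meaning reduced viability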
Summary of the method: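 Viability read as luminescent ATP content (CellTiter-Glo, 30 min room temperature) twenty-four hours after dosing, relative to DMSO. Cells: WA09-derived hNP1 neuroprogenitors on poly-L-ornithine/laminin, plated 40 to 44 hours before chemical.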

[11] = IUF_NPC4_neurite_area_120hr: Leibniz Research Institute for Environmental Medicine (IUF) 120-hour Neuronal Morphology Assay for Neurite Area (NPC4) (AID 2284305)
Summary of the method: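 hNPC spheres on PDL/laminin, N2 medium, 37C/5% CO2; dosed day 0, half-medium refresh day 3; fixed 120 h; TUBB3/Hoechst ICC, high-content imaging; neurite area = mean pixels per neuron (nuclei excluded); DMSO baseline, max 0.1%.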

[12] = VALA_TUBHUV_Agonist_CellCount: Viability Assessment in the VALA Sciences human Umbilical Vein Endothelial Tubule Formation (TUBHUV) Agonism Assay (AID 2284309)
Summary of the method: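 Viability endpoint by fluorescent imaging of fixed nuclear/CD31-stained HUVEC–HDF co-cultures. Readout is cell count, fitted upward against 0.1% DMSO. Compound exposure was 72 h in 10 ng/ml VEGF, after 3-day co-culture priming.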

[13] = VALA_TUBHUV_Antagonist_CellCount: Viability Assessment in the VALA Sciences human Umbilical Vein Endothelial Tubule Formation (TUBHUV) Antagonism Assay (AID 2284310)
Summary of the method: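 Read-out is imaged cell count after nuclear and CD31 staining, fitted against 0.1% DMSO vehicle. Compounds were added for 3 days, in 10 ng/ml VEGF assay medium, to HUVEC–HDF co-cultures pre-grown 3 days.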

[14] = VALA_TUBIPS_Antagonist_TubuleLength: VALA Sciences human iPS-derived Endothelial Tubule Formation (TUBIPS) Antagonist Assay (AID 2284313)
Summary of the method: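 Tubule length was quantified by high-content imaging of CD31- and nuclear-stained cells, with 0.1% DMSO as neutral and 100 uM suramin as inhibition control. Compounds were applied for 3 days, in 10 ng/ml VEGF, to cultures pre-grown 3 days.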

[15] = VALA_MIGHUV2_CellCount: Viability Assessment in the VALA Sciences human Umbilical Vein Endothelial Cell Migration (MIGHUV) Assay, Area of Scratch Wound after Recovery (AID 2284314)
Summary of the method: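 Viability read-out: Hoechst-stained nuclei counted by fluorescence imaging after a 24 h recovery period in fixed, scratched HUVEC plates. Compound was dosed within 30 min of scratching at six concentrations (triplicate); DMSO at 0.1 % served as baseline.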

[16] = VALA_MIGHUV2_Bcatenin: VALA Sciences human Umbilical Vein Endothelial Cell Migration (MIGHUV) Assay, Nuclear Translocation of beta-Catenin after Recovery (AID 2284315)
Summary of the method: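 Nuclear beta-catenin imaged by immunofluorescence with Hoechst counterstain in fixed HUVEC, 24 h after scratch wounding and chemical addition. Six-point concentration-response in triplicate; activity scored as signal increase over 0.1% DMSO vehicle.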

[17] = VALA_TUBHUV_Antagonist_TubuleLength: VALA Sciences human Umbilical Vein Endothelial Tubule Formation (TUBHUV) Antagonism Assay (AID 2284325)
Summary of the method: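 Tubule length was imaged via CD31 immunofluorescence after a further 3-day compound exposure in 10 ng/ml VEGF, following 3-day pre-culture of HUVEC with HDF at 1:3. Vehicle 0.1% DMSO; suramin (100 uM) inhibition control.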

[18] = VALA_MIGHUV1_ScratchOnly_CellCount: Viability Assessment in the VALA Sciences human Umbilical Vein Endothelial Cell Migration (MIGHUV) Assay, Scratch Wound Inhibited Recovery (AID 2284327)
Summary of the method: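 Hoechst-stained nuclei in the scratch wound were counted by high-content imaging after a 24 h recovery period. Scratched HUVEC monolayers received 6-point concentration series, triplicate, in 0.1% DMSO, fit against DMSO.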

[19] = VALA_TUBIPS_Agonist_TubuleLength: VALA Sciences human iPS-derived Endothelial Tubule Formation (TUBIPS) Agonism Assay (AID 2284311)
Summary of the method: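 Agonist-mode readout is the gain in imaged tubule length versus DMSO baseline. It was measured by fluorescence high-content imaging 72 h after dosing human iPSC-derived endothelial cells.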

[20] = VALA_MIGHUV2_WoundArea: VALA Sciences human Umbilical Vein Endothelial Cell Migration (MIGHUV) Assay, Area of Scratch Wound after Recovery (AID 2284316)
Summary of the method: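 Wound-area endpoint read by fluorescence imaging of Hoechst-stained nuclei after a 24 h recovery period following scratch of HUVEC monolayers (9000 cells/well). Chemicals dosed within 30 min post-scratch, triplicate 6-point series, 0.1% DMSO vehicle; Cytochalasin D positive control.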

O=C1O[C@H]([C@@H](O)CO)C(O)=C1O
AC50 [1]: inconclusive: 50000 nM | AC50 [2]: inconclusive: 50000 nM | outcome [3]: inactive | AC50 [4]: inconclusive: 22.8 nM

C#CCOC(=O)[C@@H](C)Oc1ccc(Oc2ncc(Cl)cc2F)cc1
outcome [3]: inactive

CCCCCCc1ccc(O)cc1O
AC50 [1]: active: 50000 nM | outcome [2]: inactive

Oc1c(Cl)cc(Cl)c(Cl)c1Cc1c(O)c(Cl)cc(Cl)c1Cl
AC50 [5]: active: 1400 nM | AC50 [4]: active: 5000 nM

CN1CCC[C@H]1c1cccnc1
AC50 [6]: inconclusive: 28.4 nM | outcome [7]: inactive | AC50 [5]: inconclusive: 9.41 nM | outcome [3]: inactive | AC50 [4]: inconclusive: 1240 nM

C=C(C)C(=O)OCC(F)(F)C(F)(F)C(F)(F)F
outcome [8]: inactive | outcome [9]: inactive

Nc1ccn([C@@H]2O[C@H](CO)[C@@H](O)[C@@H]2O)c(=O)n1
AC50 [3]: active: 1.58 µM and active: 2.33 µM | AC50 [10]: inconclusive: 1.76 nM

OC[C@@H](O)[C@@H](O)[C@H](O)[C@@H](O)CO
AC50 [7]: inconclusive: 50000 nM | AC50 [5]: inconclusive: 896 nM | outcome [4]: inactive | outcome [11]: inactive

Cc1occc(=O)c1O
outcome [1]: inactive

O=C1CCC(N2C(=O)c3ccccc3C2=O)C(=O)N1 (stereo unspecified)
AC50 [1]: inconclusive: 86.4 nM | AC50 [2]: inconclusive: 50000 nM | AC50 [3]: inconclusive: 239 nM | outcome [4]: inactive

CCN(CC)C(=O)c1cccc(C)c1
outcome [8]: inactive

CNC(=C[N+](=O)[O-])NCCSCc1ccc(CN(C)C)o1
AC50 [1]: inconclusive: 50000 nM

CCN(CC)C(=S)SSC(=S)N(CC)CC
AC50 [1]: active: 50000 nM | AC50 [2]: inconclusive: 6680 nM | AC50 [12]: inconclusive: 9920 nM | AC50 [13]: inconclusive: 3.71 nM | AC50 [14]: inconclusive: 36.4 nM | AC50 [15]: inconclusive: 13.4 nM | AC50 [16]: inconclusive: 1360 nM | AC50 [17]: inconclusive: 23.8 nM | AC50 [18]: inconclusive: 1.29 nM

CC(CCl)OP(=O)(OC(C)CCl)OC(C)CCl (stereo unspecified)
AC50 [3]: inconclusive: 0.0996 nM | outcome [3]: inactive | AC50 [10]: inconclusive: 50000 nM | outcome [10]: inactive | AC50 [4]: inconclusive: 0.449 nM | AC50 [11]: inconclusive: 162 nM | outcome [9]: inactive

C[Si]1(C)O[Si](C)(C)O[Si](C)(C)O[Si](C)(C)O1
AC50 [3]: inconclusive: 10.8 nM | AC50 [10]: inconclusive: 1.12 nM | AC50 [4]: inconclusive: 0.3 nM

OC[C@@H](O)[C@@H](O)[C@H](O)[C@H](O)CO
AC50 [3]: inconclusive: 1.05 nM | AC50 [10]: inconclusive: 0.508 nM | outcome [4]: inactive | outcome [12]: inactive | AC50 [13]: inconclusive: 59.6 nM | outcome [19]: inactive | outcome [14]: inactive | outcome [15]: inactive | outcome [20]: inactive | AC50 [9]: inconclusive: 1.47 nM | AC50 [17]: inconclusive: 1.29 nM | AC50 [18]: inconclusive: 1.29 nM

OC[C@H]1O[C@@](CO)(O[C@H]2O[C@H](CO)[C@@H](O)[C@H](O)[C@H]2O)[C@@H](O)[C@@H]1O
AC50 [2]: inconclusive: 50000 nM

CC(=O)Nc1ccc(O)cc1
outcome [6]: inactive | AC50 [1]: inconclusive: 50000 nM | outcome [3]: inactive | AC50 [4]: inconclusive: 50000 nM

NC(=O)NO
outcome [6]: inactive | AC50 [5]: inconclusive: 1.06 nM | AC50 [1]: inconclusive: 50000 nM | AC50 [3]: inconclusive: 50000 nM | outcome [4]: inactive

CC[C@H]1OC(=O)[C@H](C)[C@@H](O[C@H]2C[C@@](C)(OC)[C@@H](O)[C@H](C)O2)[C@H](C)[C@@H](O[C@@H]2O[C@H](C)C[C@H](N(C)C)[C@H]2O)[C@](C)(O)C[C@@H](C)C(=O)[C@H](C)[C@@H](O)[C@]1(C)O
AC50 [3]: inconclusive: 954 nM

CN(C)CCOC(C)(c1ccccc1)c1ccccn1 (stereo unspecified)
outcome [8]: inactive | AC50 [10]: inconclusive: 0.806 nM | AC50 [4]: inconclusive: 2970 nM | AC50 [11]: inconclusive: 13100 nM

c1ccc2cc3ccccc3cc2c1
AC50 [1]: inconclusive: 50000 nM | AC50 [2]: inconclusive: 50000 nM | outcome [3]: inactive | outcome [10]: inactive | AC50 [4]: inconclusive: 14.8 nM

N#Cc1ccc(CC(=NNC(=O)Nc2ccc(OC(F)(F)F)cc2)c2cccc(C(F)(F)F)c2)cc1
AC50 [3]: inconclusive: 2.18 nM | AC50 [10]: inconclusive: 0.1 nM | AC50 [4]: inconclusive: 2.27 nM

CN1C(=O)CC[C@H]1c1cccnc1
AC50 [3]: inconclusive: 1.19 nM

NNC(=O)c1ccncc1
outcome [6]: inactive | AC50 [5]: inconclusive: 11500 nM | AC50 [3]: inconclusive: 0.317 nM | outcome [4]: inactive

CC1=C(/C=C/C(C)=C/C=C/C(C)=C/C(=O)O)C(C)(C)CCC1
outcome [3]: inactive | outcome [4]: inactive

CC(C)(C)C(=O)CC(=O)C(F)(F)C(F)(F)C(F)(F)F
AC50 [9]: inconclusive: 15000 nM
